The supplement of paper PMC6411743
± gives the standard deviation of the averaged measurements. This is a selection; strong and weak results do not stand in their true shares.

Sequences of proteins named here, by UniProt entry; tags and fusion partners are left off. A change or cut given only in a name is not applied to a line headed by its entry.
UniProt Q9UI12, whole entry: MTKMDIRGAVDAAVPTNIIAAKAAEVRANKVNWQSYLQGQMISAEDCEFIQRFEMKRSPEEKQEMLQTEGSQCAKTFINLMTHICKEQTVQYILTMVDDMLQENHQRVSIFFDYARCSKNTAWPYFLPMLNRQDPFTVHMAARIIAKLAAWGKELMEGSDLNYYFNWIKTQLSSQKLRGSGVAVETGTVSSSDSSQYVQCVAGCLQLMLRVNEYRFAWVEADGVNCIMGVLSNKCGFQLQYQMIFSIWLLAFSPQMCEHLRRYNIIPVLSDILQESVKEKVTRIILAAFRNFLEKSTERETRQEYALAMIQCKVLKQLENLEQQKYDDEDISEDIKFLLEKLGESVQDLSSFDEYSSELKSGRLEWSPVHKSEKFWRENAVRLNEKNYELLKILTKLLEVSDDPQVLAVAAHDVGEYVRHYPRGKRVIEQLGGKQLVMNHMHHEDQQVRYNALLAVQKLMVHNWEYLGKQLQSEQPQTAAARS
UniProt Q9UNQ2: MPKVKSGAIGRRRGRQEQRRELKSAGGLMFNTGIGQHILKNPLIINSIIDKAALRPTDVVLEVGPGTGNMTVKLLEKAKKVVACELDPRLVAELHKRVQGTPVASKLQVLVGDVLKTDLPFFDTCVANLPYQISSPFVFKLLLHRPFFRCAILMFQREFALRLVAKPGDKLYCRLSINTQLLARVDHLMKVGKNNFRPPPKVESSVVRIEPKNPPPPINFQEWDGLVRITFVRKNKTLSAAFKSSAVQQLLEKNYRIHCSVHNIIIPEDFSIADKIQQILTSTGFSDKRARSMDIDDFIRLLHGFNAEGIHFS
UniProt Q9ULI0: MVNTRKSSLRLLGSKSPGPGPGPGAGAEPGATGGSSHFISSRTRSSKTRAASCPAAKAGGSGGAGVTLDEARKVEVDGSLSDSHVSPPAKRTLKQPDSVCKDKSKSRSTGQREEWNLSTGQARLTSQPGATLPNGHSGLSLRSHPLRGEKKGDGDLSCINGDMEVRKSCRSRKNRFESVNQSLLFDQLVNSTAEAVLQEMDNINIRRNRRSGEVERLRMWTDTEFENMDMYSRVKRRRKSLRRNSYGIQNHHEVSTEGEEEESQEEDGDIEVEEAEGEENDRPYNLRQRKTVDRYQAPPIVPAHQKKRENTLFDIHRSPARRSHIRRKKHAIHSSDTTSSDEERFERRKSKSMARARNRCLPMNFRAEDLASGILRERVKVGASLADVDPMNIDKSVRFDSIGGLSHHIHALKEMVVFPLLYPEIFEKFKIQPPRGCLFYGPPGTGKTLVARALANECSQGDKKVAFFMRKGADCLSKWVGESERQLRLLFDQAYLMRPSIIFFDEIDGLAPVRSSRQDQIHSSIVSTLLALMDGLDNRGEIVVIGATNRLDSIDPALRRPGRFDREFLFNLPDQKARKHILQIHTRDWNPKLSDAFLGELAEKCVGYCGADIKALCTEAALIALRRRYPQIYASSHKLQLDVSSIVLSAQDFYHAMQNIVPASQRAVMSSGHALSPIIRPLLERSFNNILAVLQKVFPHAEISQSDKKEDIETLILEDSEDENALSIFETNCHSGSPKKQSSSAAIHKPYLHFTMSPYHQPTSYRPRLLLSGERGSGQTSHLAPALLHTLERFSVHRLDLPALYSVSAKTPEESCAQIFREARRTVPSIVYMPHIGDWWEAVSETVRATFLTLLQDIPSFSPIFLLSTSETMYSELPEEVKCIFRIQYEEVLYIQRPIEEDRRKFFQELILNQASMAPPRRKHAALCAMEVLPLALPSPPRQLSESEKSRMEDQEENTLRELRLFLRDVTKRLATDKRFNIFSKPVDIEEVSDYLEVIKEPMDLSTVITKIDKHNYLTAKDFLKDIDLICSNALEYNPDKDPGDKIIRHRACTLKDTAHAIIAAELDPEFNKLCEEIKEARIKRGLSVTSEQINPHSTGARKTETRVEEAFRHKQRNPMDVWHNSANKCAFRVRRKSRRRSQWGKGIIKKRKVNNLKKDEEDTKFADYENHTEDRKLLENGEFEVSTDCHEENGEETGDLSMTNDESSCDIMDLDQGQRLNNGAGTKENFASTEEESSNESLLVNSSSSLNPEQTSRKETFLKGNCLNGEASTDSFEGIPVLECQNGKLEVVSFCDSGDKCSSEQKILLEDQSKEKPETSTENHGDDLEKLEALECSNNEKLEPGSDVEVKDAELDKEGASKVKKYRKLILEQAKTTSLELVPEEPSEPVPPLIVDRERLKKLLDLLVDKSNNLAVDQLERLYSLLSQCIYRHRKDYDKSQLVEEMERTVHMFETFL
UniProt Q9UM21: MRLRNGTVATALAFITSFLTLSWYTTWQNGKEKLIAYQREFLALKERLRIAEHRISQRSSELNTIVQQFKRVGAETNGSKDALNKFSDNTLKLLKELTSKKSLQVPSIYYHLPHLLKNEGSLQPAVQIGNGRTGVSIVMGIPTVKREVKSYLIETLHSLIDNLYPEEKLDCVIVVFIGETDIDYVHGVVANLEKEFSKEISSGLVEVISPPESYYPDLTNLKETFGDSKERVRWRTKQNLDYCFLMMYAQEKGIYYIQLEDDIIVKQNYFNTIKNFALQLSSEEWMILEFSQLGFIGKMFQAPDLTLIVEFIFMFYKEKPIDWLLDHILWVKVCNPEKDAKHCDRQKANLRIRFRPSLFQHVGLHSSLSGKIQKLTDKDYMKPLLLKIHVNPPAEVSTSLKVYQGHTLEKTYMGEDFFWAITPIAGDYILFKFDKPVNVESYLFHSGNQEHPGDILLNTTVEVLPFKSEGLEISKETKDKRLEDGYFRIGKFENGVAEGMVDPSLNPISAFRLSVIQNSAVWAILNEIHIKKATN
UniProt Q9UPZ3: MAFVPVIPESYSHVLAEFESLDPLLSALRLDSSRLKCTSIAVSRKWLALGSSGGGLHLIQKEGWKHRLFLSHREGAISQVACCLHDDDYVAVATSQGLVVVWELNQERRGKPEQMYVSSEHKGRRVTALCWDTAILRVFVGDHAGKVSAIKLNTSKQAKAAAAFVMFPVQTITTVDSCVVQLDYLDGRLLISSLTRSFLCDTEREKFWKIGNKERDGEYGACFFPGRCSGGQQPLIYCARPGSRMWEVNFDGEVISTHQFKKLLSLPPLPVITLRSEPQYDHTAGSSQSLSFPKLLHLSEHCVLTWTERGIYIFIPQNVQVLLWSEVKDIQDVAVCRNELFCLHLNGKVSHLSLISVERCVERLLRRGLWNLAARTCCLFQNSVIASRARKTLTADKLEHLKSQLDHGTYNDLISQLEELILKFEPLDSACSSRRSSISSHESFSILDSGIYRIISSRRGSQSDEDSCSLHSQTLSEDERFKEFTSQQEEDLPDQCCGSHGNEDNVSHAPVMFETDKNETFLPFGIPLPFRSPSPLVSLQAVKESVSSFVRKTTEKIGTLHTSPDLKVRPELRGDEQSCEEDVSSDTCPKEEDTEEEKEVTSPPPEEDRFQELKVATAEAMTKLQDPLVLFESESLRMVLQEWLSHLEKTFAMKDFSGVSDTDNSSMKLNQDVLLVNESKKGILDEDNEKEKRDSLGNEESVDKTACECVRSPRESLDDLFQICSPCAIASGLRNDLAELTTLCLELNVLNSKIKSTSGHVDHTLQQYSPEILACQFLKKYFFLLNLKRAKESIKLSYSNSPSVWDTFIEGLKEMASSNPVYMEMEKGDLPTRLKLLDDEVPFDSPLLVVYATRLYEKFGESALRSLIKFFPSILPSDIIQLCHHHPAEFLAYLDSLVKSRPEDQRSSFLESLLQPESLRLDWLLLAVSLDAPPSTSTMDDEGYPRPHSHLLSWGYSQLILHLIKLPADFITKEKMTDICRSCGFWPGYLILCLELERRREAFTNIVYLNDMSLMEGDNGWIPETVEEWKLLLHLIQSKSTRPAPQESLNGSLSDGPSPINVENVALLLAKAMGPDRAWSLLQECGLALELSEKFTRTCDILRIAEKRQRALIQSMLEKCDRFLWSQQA
UniProt Q9UL26: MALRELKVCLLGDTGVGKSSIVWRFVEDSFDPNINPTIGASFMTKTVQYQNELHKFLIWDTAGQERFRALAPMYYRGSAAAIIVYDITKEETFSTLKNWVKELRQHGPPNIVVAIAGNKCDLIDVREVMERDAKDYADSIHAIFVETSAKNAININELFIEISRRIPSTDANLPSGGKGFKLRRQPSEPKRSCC
UniProt Q9UKF6: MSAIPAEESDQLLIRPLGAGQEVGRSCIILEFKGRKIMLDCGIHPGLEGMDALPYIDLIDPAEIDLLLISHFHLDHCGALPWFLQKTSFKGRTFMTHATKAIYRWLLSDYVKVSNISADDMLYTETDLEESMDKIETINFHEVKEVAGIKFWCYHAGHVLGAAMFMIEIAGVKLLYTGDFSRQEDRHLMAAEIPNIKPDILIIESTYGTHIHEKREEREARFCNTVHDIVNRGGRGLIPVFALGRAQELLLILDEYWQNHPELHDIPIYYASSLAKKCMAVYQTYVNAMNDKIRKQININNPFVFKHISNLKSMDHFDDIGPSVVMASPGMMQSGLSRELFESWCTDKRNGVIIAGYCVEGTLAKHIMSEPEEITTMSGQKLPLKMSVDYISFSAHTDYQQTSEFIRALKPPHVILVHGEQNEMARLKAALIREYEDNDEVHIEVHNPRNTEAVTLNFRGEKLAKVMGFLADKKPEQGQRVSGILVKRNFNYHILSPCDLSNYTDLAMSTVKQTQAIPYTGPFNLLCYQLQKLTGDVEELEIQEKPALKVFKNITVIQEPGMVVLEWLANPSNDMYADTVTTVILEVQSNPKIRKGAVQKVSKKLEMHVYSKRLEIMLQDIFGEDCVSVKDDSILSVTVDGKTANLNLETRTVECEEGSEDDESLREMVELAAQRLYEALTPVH
UniProt Q9UEE5: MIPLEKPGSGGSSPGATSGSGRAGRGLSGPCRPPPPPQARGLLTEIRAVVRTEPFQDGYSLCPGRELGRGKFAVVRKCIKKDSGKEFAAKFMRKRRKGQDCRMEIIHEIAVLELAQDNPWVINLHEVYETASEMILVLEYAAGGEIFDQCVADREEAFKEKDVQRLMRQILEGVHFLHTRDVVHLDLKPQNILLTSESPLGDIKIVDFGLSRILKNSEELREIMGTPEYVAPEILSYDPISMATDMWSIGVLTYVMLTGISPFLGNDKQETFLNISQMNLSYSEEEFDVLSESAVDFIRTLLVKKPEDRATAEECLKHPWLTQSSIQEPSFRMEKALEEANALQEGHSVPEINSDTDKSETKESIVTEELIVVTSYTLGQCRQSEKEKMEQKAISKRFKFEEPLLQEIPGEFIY
UniProt Q9UJT0: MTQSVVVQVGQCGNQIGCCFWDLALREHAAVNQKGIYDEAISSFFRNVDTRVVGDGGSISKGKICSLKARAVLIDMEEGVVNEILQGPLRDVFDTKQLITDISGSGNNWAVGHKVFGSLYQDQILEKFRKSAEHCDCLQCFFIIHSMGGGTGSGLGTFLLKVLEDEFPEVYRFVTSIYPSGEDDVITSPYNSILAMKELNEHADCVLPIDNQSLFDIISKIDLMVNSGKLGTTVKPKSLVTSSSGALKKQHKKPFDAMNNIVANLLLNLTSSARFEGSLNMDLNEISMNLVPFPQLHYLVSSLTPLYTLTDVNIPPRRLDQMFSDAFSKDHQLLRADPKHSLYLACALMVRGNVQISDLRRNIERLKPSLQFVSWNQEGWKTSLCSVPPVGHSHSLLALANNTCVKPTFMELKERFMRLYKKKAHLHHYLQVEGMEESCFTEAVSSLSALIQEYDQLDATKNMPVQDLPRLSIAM

Compound: Nc1ncnc2c1ncn2[C@@H]1O[C@H](COP(=O)(O)OP(=O)(O)NP(=O)(O)O)[C@@H](O)[C@H]1O [adenylyl imidodiphosphate]
Assay: NP40-soluble protein abundance relative to vehicle (solubility fold change) (ratio); higher = more soluble protein in presence of AMP-PNP
Summary of the method: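 Jurkat crude lysate prepared with a Dounce homogeniser was treated at eight concentrations spanning 0.1 to 10 mM, 10 min at room temperature then 3 min at 37 °C. Solubilisation with 0.8% NP40 and benzonase and ultracentrifugation preceded TMT labelling of the supernatant for LC-MS/MS. Fold change against the detergent-processed vehicle was determined per replicate from vsn-normalised intensities, across three independent experiments.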

Target	NP40-soluble protein abundance (concentration: 1mM)	NP40-soluble protein abundance (concentration: 2mM)	NP40-soluble protein abundance (concentration: 4mM)	NP40-soluble protein abundance (concentration: 6mM)	NP40-soluble protein abundance (concentration: 8mM)	NP40-soluble protein abundance (concentration: 10mM)
UniProt Q9UI12 and related entries	1.02 ± 0.02	0.986 ± 0.012	0.978 ± 0.013	0.987 ± 0.01	0.973 ± 0.014	0.9838 ± 0.0093
UniProt Q9UNQ2	0.997 ± 0.019	0.968 ± 0.059	1.05 ± 0.06	1.07 ± 0.029	1.15 ± 0.044	1.16 ± 0.058
UniProt Q9ULI0 and related entries	1.057 ± 0.0048	1.09 ± 0.013	1.08 ± 0.036	1.175 ± 0.0053	1.161 ± 0.0039	1.23 ± 0.015
UniProt Q9ULH7-4|Q9ULH7-5|Q9ULH7	1.02 ± 0.026	1.03 ± 0.022	1.01 ± 0.035	0.991 ± 0.022	0.962 ± 0.026	0.994 ± 0.041
MRPS23 (UniProt Q9Y3D9)	0.922 ± 0.039	0.922 ± 0.072	0.898 ± 0.1	0.939 ± 0.045	0.926 ± 0.089	0.892 ± 0.14
NOP58 (UniProt Q9Y2X3)	1.11 ± 0.021	1.17 ± 0.013	1.17 ± 0.014	1.24 ± 0.054	1.32 ± 0.033	1.46 ± 0.057
UniProt Q9UM21	1.02 ± 0.058	0.987 ± 0.034	0.981 ± 0.023	1 ± 0.071	1 ± 0.043	0.991 ± 0.023
SEL1L (UniProt Q9UBV2)	1 ± 0.017	1 ± 0.054	0.984 ± 0.013	1.03 ± 0.035	0.993 ± 0.026	0.996 ± 0.037
UniProt Q9UPZ3 and related entries	0.976 ± 0.036	0.994 ± 0.038	0.958 ± 0.012	0.9965 ± 0.0026	0.983 ± 0.028	0.976 ± 0.066
ZC3H4 (UniProt Q9UPT8)	1.04 ± 0.015	1.1 ± 0.096	1.01 ± 0.032	0.997 ± 0.035	0.971 ± 0.02	0.982 ± 0.016
RAB22A (UniProt Q9UL26)	0.983 ± 0.042	0.962 ± 0.046	1 ± 0.037	0.989 ± 0.041	1.005 ± 0.0017	0.992 ± 0.026
CPSF3 (UniProt Q9UKF6)	0.974 ± 0.04	0.943 ± 0.063	0.999 ± 0.063	1.03 ± 0.036	1.05 ± 0.021	1.05 ± 0.096
UniProt Q9UEE5	1.06 ± 0.025	1.04 ± 0.068	1.03 ± 0.031	1.04 ± 0.035	1.03 ± 0.022	1.041 ± 0.0083
TUBE1 (UniProt Q9UJT0)	0.9764 ± 0.0095	0.965 ± 0.075	1.01 ± 0.041	0.983 ± 0.013	1 ± 0.03	0.987 ± 0.023
USP20 (UniProt Q9Y2K6)	1.01 ± 0.017	1.04 ± 0.036	1.03 ± 0.029	1.02 ± 0.02	1.015 ± 0.0077	1.01 ± 0.023

Part of the list above, limited to NP40-soluble protein abundance (concentration: 8mM).
Target	NP40-soluble protein abundance (concentration: 8mM)
SEL1L (UniProt Q9UBV2)	0.993 ± 0.026
USP20 (UniProt Q9Y2K6)	1.015 ± 0.0077
